These results are taken from US8791140B2, “Crystalline forms of 6-[2-(methylcarbamoyl)phenylsulfanyl]-3-E-[2-(pyridin-2-yl)ethenyondazole suitable for the treatment of abnormal cell growth in mammals” (Pfizer Inc., priority 2007, dated 2014).

The nature of this data set: Manufacturing filtration time. As to conditions: for Filtration Time: batches of approximately 20 kg scale, 0.25 m^2 filter area, same equipment; for time to filter the batch: recent manufacturing procedure, batches of comparable size, same filter/dryer equipment.

As to `CNC(=O)c1ccccc1Sc1ccc2c(/C=C/c3ccccn3)n[nH]c2c1` [Form IV, 6-[2-(methylcarbamoyl)phenylsulfanyl]-3-E-[2-(pyridin-2-yl)ethenyl]indazole], the “Filtration Time” value was 25.9 h and the “time to filter the batch” value is 26 h.
Take `CNC(=O)c1ccccc1Sc1ccc2c(/C=C/c3ccccn3)n[nH]c2c1` [Form XLI, 6-[2-(methylcarbamoyl)phenylsulfanyl]-3-E-[2-(pyridin-2-yl)ethenyl]indazole]: the “Filtration Time” value was found to be 0.1 h.
As to `CNC(=O)c1ccccc1Sc1ccc2c(/C=C/c3ccccn3)n[nH]c2c1` [Form XXV, 6-[2-(methylcarbamoyl)phenylsulfanyl]-3-E-[2-(pyridin-2-yl)ethenyl]indazole], the “Filtration Time” value is 4.0 h and the “time to filter the batch” value was found to be 4 h.
